This note sets out measurements from publication PMC4203132.

By UniProt entry, the sequences of proteins in these tests, tags left out. Where a name states a change or a piece, a line headed by the entry shows the natural chain unless it says otherwise.
UniProt Q8LBL1: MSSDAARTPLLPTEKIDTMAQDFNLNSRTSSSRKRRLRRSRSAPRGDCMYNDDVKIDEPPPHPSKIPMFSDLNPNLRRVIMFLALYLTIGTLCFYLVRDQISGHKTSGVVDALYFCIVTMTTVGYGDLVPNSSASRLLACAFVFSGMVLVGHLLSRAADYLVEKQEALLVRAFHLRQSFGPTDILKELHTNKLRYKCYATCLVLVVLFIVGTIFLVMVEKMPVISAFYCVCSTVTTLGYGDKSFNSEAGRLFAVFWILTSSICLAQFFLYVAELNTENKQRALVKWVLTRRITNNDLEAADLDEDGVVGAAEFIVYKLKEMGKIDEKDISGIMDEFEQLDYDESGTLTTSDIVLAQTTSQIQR

Results are given in words; binding and its absence hold for the method and conditions named. Binding calls can cover weak binding; strength is not graded here.

Experiment [1] deals with N-terminus of the vacuolar ion channel TPK1 (UniProt Q8LBL1). The experiment can be described thus: two-hybrid; yeast two-hybrid of wild-type and truncated 14-3-3s with known interactors; bait and prey not told.
The target in experiment [2] is barley H+-ATPase (barley). The experiment is described as above.

B1: 14-3-3 LAMBDA (wild type) (protein, UniProt P48349 1-248)
chain: MAATLGRDQYVYMAKLAEQAERYEEMVQFMEQLVTGATPAEELTVEERNLLSVAYKNVIGSLRAAWRIVSSIEQKEESRKNDEHVSLVKDYRSKVESELSSVCSGILKLLDSHLIPSAGASESKVFYLKMKGDYHRYMAEFKSGDERKTAAEDTMLAYKAAQDIAAADMAPTHPIRLGLALNFSVFYYEILNSSDKACNMAKQAFEEAIAELDTLGEESYKDSTLIMQLLRDNLTLWTSDMQEQMDEA
Consider B1, for which, in experiment [1], the binding entry was “binds”.

B2: 14-3-3 PHI (wild type) (protein, UniProt P46077 1-267)
chain: MAAPPASSSAREEFVYLAKLAEQAERYEEMVEFMEKVAEAVDKDELTVEERNLLSVAYKNVIGARRASWRIISSIEQKEESRGNDDHVTTIRDYRSKIESELSKICDGILKLLDTRLVPASANGDSKVFYLKMKGDYHRYLAEFKTGQERKDAAEHTLTAYKAAQDIANAELAPTHPIRLGLALNFSVFYYEILNSPDRACNLAKQAFDEAIAELDTLGEESYKDSTLIMQLLRDNLTLWTSDMQDESPEEIKEAAAPKPAEEQKEI
For B2, the binding result in experiment [2] is “binds”.

B3: 14-3-3 KAPPA (wild type) (protein, UniProt P48348 1-248)
chain: MATTLSRDQYVYMAKLAEQAERYEEMVQFMEQLVSGATPAGELTVEERNLLSVAYKNVIGSLRAAWRIVSSIEQKEESRKNEEHVSLVKDYRSKVETELSSICSGILRLLDSHLIPSATASESKVFYLKMKGDYHRYLAEFKSGDERKTAAEDTMIAYKAAQDVAVADLAPTHPIRLGLALNFSVFYYEILNSSEKACSMAKQAFEEAIAELDTLGEESYKDSTLIMQLLRDNLTLWTSDMQEQMDEA
Regarding B3, the binding result in experiment [1] is “binds”.
